This passage reports cell number change and AC50 results from PubChem BioAssay AID2685 (National Center for Advancing Translational Sciences (NCATS), 2010).

Some of the results follow. Further columns of the screen follow, without active or inactive calls. The list favours compounds with an active or inconclusive main result. Potencies come from curve fits of mixed quality, noted in brackets.

The nature of the experiment: qHTS Assay for Lipid Storage Modulators in Drosophila S3 Cells.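 For cell number change: cells counted by Cell Tracker Red CMTPX staining in the red channel.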 The note with it: BODIPY lipid droplet fluorescence, 18-24 h; for cell number change: measured here: cell count max response, cells fed with added oleic acid. The gist of the method: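 Laser-scanning cytometry quantifies lipid droplet accumulation (500–530 nm total intensity; droplet/cell object ratio) in oleic acid-fed (400 uM added) Drosophila S3 cells treated with a concentration series. 20 uM Triacsin C defined 100% inhibition.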

Where [1] appears, read: measured here: lipid fluorescence (Fed channel) AC50, cells fed with added oleic acid.
Setting [2] is: measured here: cell number channel AC50, cells fed with added oleic acid.

Broadly, the AC50 is the midpoint of the concentration-response curve, whichever way the signal moves. Read a low AC50 as activity at low concentration.

With `COc1ccc(OC)c(NC(=O)CSc2nc3c(c(=O)n(C)c(=O)n3C)n2C)c1`, the cell number change was 26%. Besides, the AC50 under setting [1] was 0.206 µM [rising, full curve].

For `Cc1ccc(NC(=O)Cn2c(CCC(=O)O)ccc2-c2cccs2)cc1Cl`, the cell number change was determined as 5.2%. Further, under setting [2], the half-maximal activity concentration (AC50) was 0.146 µM [falling, full curve, poor fit].

As to `CC(=O)N1CC=C2C(C#N)=C(N)C(C#N)(C#N)C(CCc3ccccc3)C2C1` (stereo unspecified), the cell number change was 1.51%.

On to `COc1ccc(OC)c2c1sc(=NC(=O)c1ccco1)n2C`, for which the cell number change was -12.2%. The half-maximal activity concentration (AC50) under setting [1] is 0.116 µM [falling, full curve, poor fit].

As to `Cc1nc([N+](=O)[O-])c(Br)n1CC(=O)c1ccc(Cl)cc1`, the half-maximal activity concentration (AC50) runs as follows: under setting [2], 1.64 µM [rising, partial curve, poor fit]; under setting [1], 0.82 µM [rising, full curve, poor fit].

With `O=C(Nc1nnc(C2CC2)s1)C1CC(=O)N(c2ccc3c(c2)OCCO3)C1` (stereo unspecified), the cell number change was determined as 14.1%.

For the compound `COc1ccc(/C=C/C(=O)OCC(=O)Nc2cc(C(N)=O)cc(C(N)=O)c2)cc1`, the cell number change was 19.7%.

`O=C(CCNC(=O)c1ccc(Br)cc1)NCC1CCCO1` (stereo unspecified): the cell number change was 1.95%. In addition, the AC50 under setting [1] is 29.1 µM [falling, partial curve].

With `O=C(CCN1C(=O)/C(=C/c2ccc(F)cc2)SC1=S)NNC(=O)c1cccnc1`, the cell number change was 1.23%. Also, the AC50 under setting [1] is 6.51 µM [rising, single point].

As to `CCOC(=O)CSc1nc(N)c2c3c(sc2n1)CCCC3`, the cell number change worked out at 18.1%. Further, under setting [2], the AC50 is 0.00461 µM [rising, full curve, poor fit]. The AC50 under setting [1] is 18.4 µM [falling, partial curve].

Take `COc1ccc(N(CC(=O)NCc2ccc(Cl)cc2)S(=O)(=O)c2c(C)nn(C)c2C)cc1`: the cell number change is -10.3%. Besides, the AC50 under setting [2] is 6.51 µM [falling, partial curve, poor fit].

Take `Cc1nc(COC(=O)c2cc(O)c3ccccc3c2O)cs1`: the cell number change was -11%. For the same compound, the half-maximal activity concentration (AC50) under setting [2] is 0.58 µM [falling, single point]. Also, the concentration at half-maximal activity (AC50) under setting [1] is 1.03 µM [falling, single point].

For `CN(C)CCNc1nc(-c2ccccc2)nnc1C(F)(F)F`, the cell number change was 23.7%. The AC50 under setting [1] was 8.2 µM [rising, partial curve, poor fit].

Turning to `O=[N+]([O-])c1ccc(/C=N/Nc2ccc3ccccc3c2)o1`, the cell number change was determined as 41.2%. Besides, the AC50 under setting [2] is 4.61 µM [rising, partial curve]. Also, the AC50 under setting [1] was 11.6 µM [falling, partial curve].

In the case of `Cc1oc2c(c1C(=O)Nc1cccc(C(=O)O)c1)CCCC2`, the cell number change was -27.3%. The AC50 under setting [2] is 4.11 µM [falling, full curve, poor fit]. In addition, the half-maximal activity concentration (AC50) under setting [1] was 0.206 µM [falling, full curve, poor fit].

In the case of `CCOC(=O)c1c(C)c(C(=O)Nc2cc(OC)ccc2OC)c(C)n1CC`, the cell number change is -18.1%. Also, under setting [1], the concentration at half-maximal activity (AC50) is 9.2 µM [rising, partial curve, poor fit].

For `O=C(CCNC(=O)c1ccc(Br)cc1)NCCCc1ccccc1`, the cell number change was 93.6%. Under setting [2], the half-maximal activity concentration (AC50) was 16.4 µM [rising, partial curve].

On to `FC(F)(F)c1nc(Oc2ccccc2)c2ccccc2n1`, for which the AC50 under setting [2] is 0.411 µM [falling, single point].

In the case of `O=C(CSc1ncn[nH]1)Nc1ccnc2ccccc12`, the cell number change stood at 4.79%.

Take `Cc1nn2c(=O)cc(CSCC(=O)Nc3ccccc3F)nc2s1`: the cell number change was -2.47%. Besides, the AC50 under setting [1] is 29.1 µM [rising, single point].

`COc1ccc(C(=O)OCC(=O)NC(=O)NC2CCCC2)c(OC)c1`: the cell number change is 8.21%. The half-maximal activity concentration (AC50) under setting [2] is 6.51 µM [rising, partial curve, poor fit]. The AC50 under setting [1] was 6.51 µM [rising, partial curve].

Turning to `CCN(CC(=O)Nc1ccccc1C(=O)NC1CC1)Cc1cccs1`, the cell number change is 25%. Also, the concentration at half-maximal activity (AC50) under setting [2] was 6.51 µM [rising, single point].

On to `O=C(CN(Cc1ccccc1)S(=O)(=O)c1ccccc1)N/N=C/c1ccccc1[N+](=O)[O-]`, for which the cell number change is -26.8%. Moreover, the half-maximal activity concentration (AC50) under setting [1] was 0.411 µM [rising, partial curve, poor fit].

As for `COCCNC(=O)c1cc2c(-c3ccc(Cl)cc3)nn(C)c2s1`, the AC50 under setting [2] was 2.59 µM [rising, partial curve] and the concentration at half-maximal activity (AC50) under setting [1] is 1.64 µM [rising, partial curve].

For the compound `CCN1CCCC1CNC(=O)Cn1cnc2ccc(S(=O)(=O)N3CCC(C)CC3)cc2c1=O` (stereo unspecified), the cell number change was -60.1%. Moreover, under setting [2], the AC50 was 23.1 µM [falling, single point].

Consider `COc1ccc(Cl)c(OC)c1C(=O)NC(=O)Nc1c(F)cc(F)cc1F`, for which the cell number change is -2.19%. In addition, the AC50 under setting [1] was 0.517 µM [falling, single point].

Consider `Cc1c(NS(=O)(=O)CC23CCC(CC2=O)C3(C)C)c(=O)n(-c2ccccc2)n1C` (stereo unspecified), for which the cell number change stood at 43.5%. Moreover, the half-maximal activity concentration (AC50) under setting [2] was 29.1 µM [rising, single point]. The AC50 under setting [1] was 2.91 µM [rising, full curve, poor fit].

Consider `CCn1c(SCC(=O)NC2CCCCC2C)nnc1-c1ccc(OC)cc1` (stereo unspecified), for which the cell number change was -7.99%.

In the case of `CCSc1nc2c(c(=O)[nH]1)C(c1ccc(C)cc1)C1=C(CCCC1=O)N2` (stereo unspecified), the cell number change was -9.25%. Under setting [1], the concentration at half-maximal activity (AC50) was 0.517 µM [falling, single point].

For the compound `C=C(C)CNC(=S)NNC(=O)CCn1c2ccccc2c2ccccc21`, the cell number change is -4.6%. In addition, the half-maximal activity concentration (AC50) under setting [2] was 0.291 µM [falling, partial curve, poor fit].

For `CC(NC(=O)c1ccccc1F)c1nnc(SCC(=O)NC2CCCCC2)n1C` (stereo unspecified), under setting [1], the half-maximal activity concentration (AC50) was 0.58 µM [falling, single point].

As for `Cc1ccc(OCC(=O)c2c(O)c3ccccc3oc2=O)cc1C`, the cell number change was found to be 3.57%.

As for `O=C(O)c1ccc(Sc2nnnn2-c2ccccc2)c([N+](=O)[O-])c1`, the cell number change was -29.3%. The concentration at half-maximal activity (AC50) under setting [1] was 4.11 µM [falling, single point].

As for `COCCN(C(=O)CSc1n[nH]c(-c2ccccc2)n1)c1c(N)n(Cc2ccccc2)c(=O)[nH]c1=O`, the cell number change was -5.13%. Moreover, under setting [1], the half-maximal activity concentration (AC50) was 5.17 µM [rising, single point].

For `CCCCN(C(=O)CSc1nnc(Nc2ccccc2)s1)c1c(N)n(CCC)c(=O)[nH]c1=O`, the cell number change is 24.1%. Further, under setting [1], the concentration at half-maximal activity (AC50) was 0.92 µM [rising, partial curve, poor fit].

In the case of `COCCN(CCOC)S(=O)(=O)c1ccc(C(=O)Nc2nnc(CSC)o2)cc1`, the cell number change is -70.8%. For the same compound, under setting [2], the half-maximal activity concentration (AC50) is 20.6 µM [falling, single point].

In the case of `CCCN(CC(=O)Nc1ccccc1OC)C(=O)c1cnc(Cl)c(Cl)c1`, the concentration at half-maximal activity (AC50) under setting [1] was 29.1 µM [falling, single point].
